# At least one compound was matched to its structure with a doubt left.
# Tested on: H. pylori SS1
# Assay: H. pylori killing kinetics at various pHs (CFU counting, 1 h)
# Assay type: cell-based, Helicobacter pylori
# Details: pH 3.0, 1 h incubation
# Experimental: H. pylori killing kinetics at various pHs. The killing kinetics of polypeptides were measured against H. pylori by counting the colony forming units (CFU) of alive bacteria with agar plating. The polypeptides at various concentrations were dissolved in the Tris-HC buffer at various pHs (pH 7.4, 4.0, 3.0). H. pylori were then collected and dispersed in the BB medium supplied with fresh urea (10 mM) and 10% FBS at different pHs (pH 7.4, 4.0, 3.0). The optical density at 600 nm of the bacteria were fixed at 0.1. The bacteria were then incubated with the polypeptides solution at corresponding pH in the incubator supplied with 10% CO2 at 37° C. Samples were taken for a series of ten-fold dilutions, and plated out in BB agar plates with 10% FBS and vancomycin (pH 7.4) after 1 h incubation. The plates were incubated for 72 h in the incubator and the bacteria were counted for CFU. Bacteria incubated with Tris-HCl buffer only at corresponding pH were served as 100% survival. Survival rate (%)=CFU of bacteria treated with polypeptides/CFU of bacteria treated with buffer×100%. The killing kinetics of antibiotics (OAC, omeprazole, amoxicillin, clarithromycin) against H. pylori were determined with a similar procedure. […] The plates were incubated for 72 h in the incubator and the bacteria were counted for CFU.
structure (smiles),measurement,value
"COc1ccc2[nH]c([S+]([O-])Cc3ncc(C)c(OC)c3C)nc2c1 (stereo not shown) [omeprazole, reference compound]",bactericidal activity against SS1,bacterial killing effect
